In PubChem BioAssay AID1259415 (National Center for Advancing Translational Sciences (NCATS), 2018):
Values joined by “and” are separate entries in the source; they are usually repeats but may differ in a detail not shown here. Equal values may be shown once. Out of some 410,000 compounds screened, about 18,000 (4.4%) were called active. Inconclusive means that the source gave no clear call. Such entries were picked first, then a sample of the others. No stated cut-off is given here; in the data, active means activity change below about -60%; inconclusive means no clear call, values can overlap the other calls; inactive means above about -39%.

Experiment: qHTS Assay for inhibitors of the human cytomegalovirus (HCMV)
Settings: HFF cells, HCMV-luciferase reporter, 72 h; at 57.5 µM; active compounds read low
Procedure, shortened: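 Inhibition of viral replication was scored as loss of reporter luminescence in HFFs infected with HCMV-luciferase (MOI 1 PFU/cell) for 72 h; compounds tested at 2 doses, normalized to buffer and Salinomycin controls.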
On the % scale 0 is the no-effect control and ±100 the full control effect.

| Structure (SMILES) | activity change, negative = inhibition |
| --- | --- |
| Cc1nn(C(C)(C)C)c(NC(=O)c2ccc(Cl)cc2Cl)c1Br | inconclusive: -42.3% |
| Cc1ccc(CN2CCN(CC(=O)NC(C)c3ccc4c(c3)OCCO4)C2=O)cc1 (configuration not stated) | inconclusive: -46.9% |
| COCCCn1c(=N)c(C(=O)NC2CCCCC2)cc2c(=O)n3ccccc3nc21 | inactive: -6.84% and inactive: -22.5% |
| CCCCCn1c(CN2CCN(c3cc(Cl)ccc3C)CC2)nc2c1c(=O)[nH]c(=O)n2C | inconclusive: -50% |
| O=C1NC(=O)C(CCc2ccncc2)(Cc2ccc([N+](=O)[O-])cc2)C(=O)N1 | inconclusive: -47.5% |
| COc1ccccc1NS(=O)(=O)c1cccc(NC(=O)c2cncc(Br)c2)c1 | inconclusive: -43.8% |
| O=S1(=O)CCOC[C@H](CC2CCCCC2)N1Cc1ccc(Cl)cc1 | inactive: -19.8% |
| Cc1ccc(-c2nc(N)c3c(-c4ccc(C)cc4)nn(C(C)(C)C)c3n2)cc1 | inconclusive: -42.4% |
| Brc1ccc(C2Nc3cccc4cccc(c34)N2)s1 | inactive: -39.6% |
| CN(Cc1ccccc1F)c1ncnc2sccc12 | inconclusive: -40.7% |
| O=C(Nc1ncccc1O)c1cccc(S(=O)(=O)N2CCN(c3ccc(F)cc3)CC2)c1 | inactive: -5.24% |
| Cc1ccccc1C(=O)Nc1nc2c(s1)CC(C(C)(C)C)CC2 (configuration not stated) | active: -65.7% |
| COc1ccc(CC2(CO)CCN(S(=O)(=O)c3cccc4cccnc34)CC2)cc1 | inactive: -14.8% |
| COc1ccc(-c2cnc(N)n2C)cc1 | inconclusive: -43.6% |
| Cc1cc(C)nc(-n2nc(C)cc2NC(=O)CN2CCC(C)CC2)n1 | inconclusive: -45.4% |
| COc1ccccc1N1CCN(C(=O)C2c3ccccc3Oc3ccccc32)CC1 | inconclusive: -44.4% |
| COc1ccc(NC(=O)CSc2ccccc2)cn1 | active: -103% |
| COc1ccc(NC(=O)Cn2nnc(C(=O)NCc3cccs3)c2N)cc1Cl | inactive: -20.8% |
| NS(=O)(=O)c1ccc(N=Nc2ccc(O)c3ncccc23)cc1 | active: -97.3% |
| Cc1ccc(C2NC(c3ccc(C)cc3)C(C)C(=O)C2C)cc1 (configuration not stated) | inactive: 5.15% |
| CCN(CC(=O)Nc1ccc(Cl)c(S(=O)(=O)N(C)C)c1)Cc1nc2ccccc2c(=O)[nH]1 | inconclusive: -46.8% |
| CS(=O)(=O)c1nc(S(=O)(=O)c2ccc(Cl)cc2)c(N2CCC3(CC2)OCCO3)s1 | inconclusive: -40.4% |
| CNc1cnc(-c2ccc(C(=O)N3CCOCC3)cc2)cn1 | inactive: 36.2% |
| CCN(C(=O)CSc1nnc(C)n2c1cc1occc12)c1ccccc1 | inconclusive: -43.9% |
| O=C(NCC1CCN(Cc2cccc(Cl)c2)CC1)Nc1ccc(Cl)cc1 | inconclusive: -42.3% |
| O=S(=O)(c1ccc2oc(=S)[nH]c2c1)N1CCOCC1 | inconclusive: -40.6% |

| Structure (SMILES) | activity change, negative = inhibition |
| --- | --- |
| O=C1[C@H]2[C@@H](c3ccc(Cl)cc3)N3C(=O)N(c4cccc(Br)c4)C(=O)[C@@]3(Cc3ccc(Cl)cc3)[C@H]2C(=O)N1C1CCCCC1 | inactive: -22.9% |
| CCC(=O)[C@@H](C)[C@@H](OC(C)=O)[C@H](C)C[C@@H](C)[C@H]1OC(=O)C[C@@]2(O)CC=C(C)C(O2)C(C)=CCCC[C@H](O[C@H]2C[C@@H](OC(N)=O)[C@H](OC(C)=O)[C@@H](C)O2)C=C[C@H](C)C[C@H]1C | inconclusive: -49.7% |
| CN(Cc1ccccn1)Cc1nc(Cc2ccccc2Cl)no1 | inconclusive: -52.1% |
| CC1(C(=O)Nc2cccc(C#N)c2)CCN1C(=O)Cc1ccc(-c2ccccc2)cc1 (configuration not stated) | active: -61.3% |
| O=C(NCc1cccs1)c1ccc(CSc2nc3ccncc3n2Cc2cccc(F)c2)cc1 | inconclusive: -45.8% |
| COc1ccc(N(CC(=O)NCc2ccc(C)cc2)S(=O)(=O)c2c(C)nn(C)c2C)cc1 | inconclusive: -59% |
| CC(C)CNS(=O)(=O)c1ccc(OCC(=O)NCc2ccco2)cc1 | inconclusive: -48.5% |
| O=C(N[C@@H]1c2ccccc2CC[C@@H]1OCc1ccccc1)c1ccc(-c2ccccc2)cc1 | inactive: -10.9% |
| CC1CCN(S(=O)(=O)c2csc(C(=O)Nc3ccccc3)c2)CC1 | inconclusive: -48.1% |
| CC1CCCN(C(=S)Nc2ccc(F)cc2)C1 (configuration not stated) | inconclusive: -48.3% |
| COc1ccc([C@H]2CC(=O)C=C(c3cccc(C(C)C)c3)C2)cc1 | inactive: 54% |
| CCCCc1cc(=O)oc2cc(OCC(=O)N3CCC(C(=O)O)(c4ccccc4)CC3)ccc12 | inactive: -11.7% |
| CC1Cc2cc(S(=O)(=O)NCc3ccc(F)cc3)ccc2N1C(=O)C1CCC1 (configuration not stated) | inconclusive: -41% |
| Cc1ccc(N2C(=O)N(CC(=O)Nc3cc(C)cc(C)c3)C(=O)C2C)cc1 (configuration not stated) | inconclusive: -48.5% |
| O=C(N/N=C/c1ccc2c(c1)OCO2)c1sc2cc(Cl)ccc2c1Cl | inactive: -38.6% |
| COc1ccccc1NC(=O)C1CCN(S(=O)(=O)c2cccs2)CC1 | inconclusive: -42.6% |
| CCN(Cc1ccccc1)C(=O)Nc1ccc2c(c1)N(C)C(=O)c1ccccc1S2 | inactive: -5.32% |
| CCOC(CCn1c(SCC(=O)NC2CCCC2)nc2ccccc2c1=O)OCC | inconclusive: -44.2% |
| CC(c1ccccc1C(O)c1ccccc1)N(C)C (configuration not stated) | inactive: -24.1% |
| Oc1ccc2c3c1O[C@H]1c4oc5ccccc5c4C[C@@]4(O)[C@@H](C2)N(CC2CC2)CC[C@]314 | inconclusive: -50.5% |
| O=C(Nc1ccc(Br)cc1)c1ccc(Br)c(S(=O)(=O)NCc2ccccc2)c1 | active: -106% |
| CC(=O)c1c(N2CCCCC2)nc(=S)n(-c2ccccc2)c1C | inconclusive: -50.5% |
| COc1cccc(/C=C/C(=O)OCC(=O)c2ccc(C)c(C)c2)c1OC | inconclusive: -43.2% |
| c1ccc2c(c1)Cn1c-2nc2ccccc21 | inactive: 225% |
| CN1C(=O)C2CCCCN2c2ccc(C(=O)NCc3ccccc3Br)cc21 (configuration not stated) | inconclusive: -52.8% |
| CCC(C)OC(=O)C[N+](C)(C)CCOC1CC2CCC1(C)C2(C)C (configuration not stated) | inconclusive: -55.8% |

Looked up above:
`CS(=O)(=O)c1nc(S(=O)(=O)c2ccc(Cl)cc2)c(N2CCC3(CC2)OCCO3)s1` – activity change, negative = inhibition: inconclusive: -40.4%
`COc1ccccc1NS(=O)(=O)c1cccc(NC(=O)c2cncc(Br)c2)c1` – activity change, negative = inhibition: inconclusive: -43.8%
